{"sequences": {"note": "The chains behind the UniProt entries cited, without tags or fusion partners. Residues count along the entry.", "UniProt P02769, residues 25-607": "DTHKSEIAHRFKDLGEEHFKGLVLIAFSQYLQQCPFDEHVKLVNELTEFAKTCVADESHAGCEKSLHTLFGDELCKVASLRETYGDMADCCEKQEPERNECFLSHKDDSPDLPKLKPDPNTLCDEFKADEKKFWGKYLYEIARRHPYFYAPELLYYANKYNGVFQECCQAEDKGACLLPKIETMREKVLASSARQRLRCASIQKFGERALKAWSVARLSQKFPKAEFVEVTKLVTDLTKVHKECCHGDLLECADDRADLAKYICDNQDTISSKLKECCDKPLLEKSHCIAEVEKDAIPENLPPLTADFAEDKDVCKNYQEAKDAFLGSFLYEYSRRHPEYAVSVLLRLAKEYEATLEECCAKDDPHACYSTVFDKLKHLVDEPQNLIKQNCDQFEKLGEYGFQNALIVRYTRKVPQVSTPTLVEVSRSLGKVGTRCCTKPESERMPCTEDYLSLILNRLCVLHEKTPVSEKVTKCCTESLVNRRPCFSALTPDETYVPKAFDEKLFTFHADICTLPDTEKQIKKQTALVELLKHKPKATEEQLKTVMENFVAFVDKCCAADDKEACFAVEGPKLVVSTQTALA"}, "source": "paper PMC4621360", "molecular_target": "FSFG-K, M-Nsp1(274–397)-LEHHHHHH (S. cerevisiae)", "test": "NMR 15N R2 relaxation; 140 μM 15N-labeled FSFG-K in buffer A with BSA 205 mg/ml, 25°C; both purified", "note": "Results are given in words; binding and its absence hold for the method and conditions named. Some results given as binding are weak or reduced against the parent protein; the word gives no strength.", "data": [{"substance": "Bovine Serum Albumin (from UniProt P02769 25-607)", "values": [{"measurement": "binding", "result": "binds weakly"}]}]}
